We go through five substances from publication PMC4931344.

By UniProt entry, the sequences of proteins in these tests, tags left out.
UniProt O95433: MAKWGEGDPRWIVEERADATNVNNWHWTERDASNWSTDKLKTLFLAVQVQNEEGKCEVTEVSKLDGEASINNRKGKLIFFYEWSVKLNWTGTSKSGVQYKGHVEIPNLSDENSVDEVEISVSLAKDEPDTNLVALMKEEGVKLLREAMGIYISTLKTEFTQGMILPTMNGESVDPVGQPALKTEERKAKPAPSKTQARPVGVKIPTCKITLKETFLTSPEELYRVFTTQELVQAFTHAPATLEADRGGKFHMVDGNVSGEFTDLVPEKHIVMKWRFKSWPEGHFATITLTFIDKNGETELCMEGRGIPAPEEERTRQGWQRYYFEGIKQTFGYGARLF
UniProt P15056: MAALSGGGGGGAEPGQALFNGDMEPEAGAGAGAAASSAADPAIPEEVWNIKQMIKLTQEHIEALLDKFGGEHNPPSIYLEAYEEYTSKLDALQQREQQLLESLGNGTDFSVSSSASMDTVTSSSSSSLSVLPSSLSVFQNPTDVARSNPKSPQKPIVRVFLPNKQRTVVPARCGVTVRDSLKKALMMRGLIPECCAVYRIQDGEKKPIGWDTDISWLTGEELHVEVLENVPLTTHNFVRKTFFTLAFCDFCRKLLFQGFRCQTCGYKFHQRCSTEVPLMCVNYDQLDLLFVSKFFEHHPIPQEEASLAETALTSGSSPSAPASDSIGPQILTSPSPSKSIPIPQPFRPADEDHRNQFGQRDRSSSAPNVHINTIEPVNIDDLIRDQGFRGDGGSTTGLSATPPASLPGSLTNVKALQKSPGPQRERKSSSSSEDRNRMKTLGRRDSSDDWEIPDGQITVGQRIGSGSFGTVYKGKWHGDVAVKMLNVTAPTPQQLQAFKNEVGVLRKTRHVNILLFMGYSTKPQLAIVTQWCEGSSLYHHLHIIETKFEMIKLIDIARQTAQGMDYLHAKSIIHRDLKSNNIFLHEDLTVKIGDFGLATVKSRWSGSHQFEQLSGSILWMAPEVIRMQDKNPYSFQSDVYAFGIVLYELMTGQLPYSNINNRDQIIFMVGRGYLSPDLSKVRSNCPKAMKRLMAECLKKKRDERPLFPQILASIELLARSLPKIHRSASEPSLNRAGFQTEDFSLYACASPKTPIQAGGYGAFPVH
UniProt Q9UNE7: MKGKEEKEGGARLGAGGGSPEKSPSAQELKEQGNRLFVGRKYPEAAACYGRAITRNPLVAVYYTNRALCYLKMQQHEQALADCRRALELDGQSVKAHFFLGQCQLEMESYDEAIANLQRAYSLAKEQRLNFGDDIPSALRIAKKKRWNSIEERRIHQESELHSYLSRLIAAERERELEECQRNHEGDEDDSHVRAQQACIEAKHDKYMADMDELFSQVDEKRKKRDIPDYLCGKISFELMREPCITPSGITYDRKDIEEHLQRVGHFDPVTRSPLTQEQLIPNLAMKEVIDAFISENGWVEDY
UniProt P04150: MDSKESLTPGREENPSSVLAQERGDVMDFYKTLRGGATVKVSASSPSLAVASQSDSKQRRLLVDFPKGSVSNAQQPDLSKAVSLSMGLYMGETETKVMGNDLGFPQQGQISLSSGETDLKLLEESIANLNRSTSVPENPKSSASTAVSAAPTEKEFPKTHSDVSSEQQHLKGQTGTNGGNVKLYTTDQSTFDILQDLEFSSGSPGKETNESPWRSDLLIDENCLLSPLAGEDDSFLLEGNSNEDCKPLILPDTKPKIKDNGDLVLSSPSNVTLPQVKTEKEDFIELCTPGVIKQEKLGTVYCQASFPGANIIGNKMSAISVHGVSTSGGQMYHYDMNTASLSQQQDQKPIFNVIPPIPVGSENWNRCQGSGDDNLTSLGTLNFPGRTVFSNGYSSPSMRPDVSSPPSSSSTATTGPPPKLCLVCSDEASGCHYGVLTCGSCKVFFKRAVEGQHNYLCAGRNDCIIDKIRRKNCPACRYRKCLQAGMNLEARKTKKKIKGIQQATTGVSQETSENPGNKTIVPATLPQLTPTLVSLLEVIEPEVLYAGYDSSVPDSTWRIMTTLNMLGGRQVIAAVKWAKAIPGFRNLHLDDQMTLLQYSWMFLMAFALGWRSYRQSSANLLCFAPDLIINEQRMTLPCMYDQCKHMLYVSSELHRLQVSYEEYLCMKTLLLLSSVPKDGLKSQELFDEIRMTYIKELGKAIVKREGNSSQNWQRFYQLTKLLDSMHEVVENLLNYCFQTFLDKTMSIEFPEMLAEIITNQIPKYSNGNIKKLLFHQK

In test [1] the target is T1, endogenous FLCN (folliculin) (human (endogenous in HEK293)) (UniProt Q8NFG4).
T1 sequence: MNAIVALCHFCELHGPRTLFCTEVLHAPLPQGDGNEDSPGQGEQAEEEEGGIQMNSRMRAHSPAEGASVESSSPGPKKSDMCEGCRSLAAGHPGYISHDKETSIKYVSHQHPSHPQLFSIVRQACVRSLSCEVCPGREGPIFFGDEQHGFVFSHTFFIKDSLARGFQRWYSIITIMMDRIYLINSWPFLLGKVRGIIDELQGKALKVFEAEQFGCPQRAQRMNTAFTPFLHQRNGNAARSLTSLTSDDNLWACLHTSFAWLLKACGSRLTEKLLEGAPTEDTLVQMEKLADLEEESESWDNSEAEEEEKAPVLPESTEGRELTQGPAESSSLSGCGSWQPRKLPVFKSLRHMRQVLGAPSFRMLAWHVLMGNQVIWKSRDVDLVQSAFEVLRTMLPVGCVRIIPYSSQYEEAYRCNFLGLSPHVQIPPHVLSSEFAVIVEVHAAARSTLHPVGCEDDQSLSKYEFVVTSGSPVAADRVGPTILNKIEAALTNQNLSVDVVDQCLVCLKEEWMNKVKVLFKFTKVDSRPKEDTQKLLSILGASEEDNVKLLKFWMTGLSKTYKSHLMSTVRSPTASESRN
In words: co-IP; endogenous FLCN isolated from HEK293 lysates with anti-FLCN (IgG control), immunoblot. (In western blotting, separated proteins are transferred to a membrane and probed.)

The target in test [2] is T2, FLAG–FLCN (amino-terminally FLAG-tagged folliculin) (UniProt Q8NFG4).
T2 sequence: T1 sequence
In words: co-IP; FLAG–FLCN (empty vector control) immunoprecipitated from HEK293, immunoblot.

Test [3] deals with T3, endogenous FNIP2 (folliculin-interacting protein 2) (human (endogenous in HEK293, cancer cell lines and renal tissue)) (UniProt Q9P278).
T3 sequence: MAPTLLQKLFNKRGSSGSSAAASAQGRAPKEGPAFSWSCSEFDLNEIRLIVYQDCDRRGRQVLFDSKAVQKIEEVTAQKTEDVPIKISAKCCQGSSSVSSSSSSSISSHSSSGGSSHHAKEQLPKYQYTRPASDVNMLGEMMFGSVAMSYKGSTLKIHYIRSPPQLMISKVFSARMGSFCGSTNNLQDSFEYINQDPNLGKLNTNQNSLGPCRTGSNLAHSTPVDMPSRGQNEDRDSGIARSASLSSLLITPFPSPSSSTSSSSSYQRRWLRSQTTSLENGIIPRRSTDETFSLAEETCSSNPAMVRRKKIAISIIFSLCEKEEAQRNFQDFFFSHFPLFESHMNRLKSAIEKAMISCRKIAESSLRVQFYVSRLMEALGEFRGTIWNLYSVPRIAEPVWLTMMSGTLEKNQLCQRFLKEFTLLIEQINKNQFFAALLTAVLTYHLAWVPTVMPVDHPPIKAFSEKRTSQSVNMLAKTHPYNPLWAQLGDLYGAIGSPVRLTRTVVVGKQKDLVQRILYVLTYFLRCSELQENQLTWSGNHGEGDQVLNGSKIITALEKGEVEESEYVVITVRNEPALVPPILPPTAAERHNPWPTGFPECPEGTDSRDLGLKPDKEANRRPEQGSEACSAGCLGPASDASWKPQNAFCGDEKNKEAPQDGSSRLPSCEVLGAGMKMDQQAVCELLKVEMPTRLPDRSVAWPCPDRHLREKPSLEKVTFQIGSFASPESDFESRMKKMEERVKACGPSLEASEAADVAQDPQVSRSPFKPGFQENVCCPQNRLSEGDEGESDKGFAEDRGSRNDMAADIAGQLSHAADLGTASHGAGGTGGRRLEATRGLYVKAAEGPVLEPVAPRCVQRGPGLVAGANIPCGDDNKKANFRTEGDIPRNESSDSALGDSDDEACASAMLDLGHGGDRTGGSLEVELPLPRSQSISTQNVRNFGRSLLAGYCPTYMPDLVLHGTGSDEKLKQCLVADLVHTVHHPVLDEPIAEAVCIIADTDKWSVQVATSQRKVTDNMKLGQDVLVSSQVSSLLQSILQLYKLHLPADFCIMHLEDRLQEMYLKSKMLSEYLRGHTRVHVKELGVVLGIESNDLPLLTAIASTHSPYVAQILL
Put plainly: co-IP; endogenous FNIP1 and FNIP2 isolated from HEK293 lysates with anti-FNIP1 or anti-FNIP2 (IgG control), immunoblot.

In test [4] the target is T4, endogenous FNIP1 (folliculin-interacting protein 1) (human (endogenous in HEK293, cancer cell lines and renal tissue)) (UniProt Q8TF40).
T4 sequence: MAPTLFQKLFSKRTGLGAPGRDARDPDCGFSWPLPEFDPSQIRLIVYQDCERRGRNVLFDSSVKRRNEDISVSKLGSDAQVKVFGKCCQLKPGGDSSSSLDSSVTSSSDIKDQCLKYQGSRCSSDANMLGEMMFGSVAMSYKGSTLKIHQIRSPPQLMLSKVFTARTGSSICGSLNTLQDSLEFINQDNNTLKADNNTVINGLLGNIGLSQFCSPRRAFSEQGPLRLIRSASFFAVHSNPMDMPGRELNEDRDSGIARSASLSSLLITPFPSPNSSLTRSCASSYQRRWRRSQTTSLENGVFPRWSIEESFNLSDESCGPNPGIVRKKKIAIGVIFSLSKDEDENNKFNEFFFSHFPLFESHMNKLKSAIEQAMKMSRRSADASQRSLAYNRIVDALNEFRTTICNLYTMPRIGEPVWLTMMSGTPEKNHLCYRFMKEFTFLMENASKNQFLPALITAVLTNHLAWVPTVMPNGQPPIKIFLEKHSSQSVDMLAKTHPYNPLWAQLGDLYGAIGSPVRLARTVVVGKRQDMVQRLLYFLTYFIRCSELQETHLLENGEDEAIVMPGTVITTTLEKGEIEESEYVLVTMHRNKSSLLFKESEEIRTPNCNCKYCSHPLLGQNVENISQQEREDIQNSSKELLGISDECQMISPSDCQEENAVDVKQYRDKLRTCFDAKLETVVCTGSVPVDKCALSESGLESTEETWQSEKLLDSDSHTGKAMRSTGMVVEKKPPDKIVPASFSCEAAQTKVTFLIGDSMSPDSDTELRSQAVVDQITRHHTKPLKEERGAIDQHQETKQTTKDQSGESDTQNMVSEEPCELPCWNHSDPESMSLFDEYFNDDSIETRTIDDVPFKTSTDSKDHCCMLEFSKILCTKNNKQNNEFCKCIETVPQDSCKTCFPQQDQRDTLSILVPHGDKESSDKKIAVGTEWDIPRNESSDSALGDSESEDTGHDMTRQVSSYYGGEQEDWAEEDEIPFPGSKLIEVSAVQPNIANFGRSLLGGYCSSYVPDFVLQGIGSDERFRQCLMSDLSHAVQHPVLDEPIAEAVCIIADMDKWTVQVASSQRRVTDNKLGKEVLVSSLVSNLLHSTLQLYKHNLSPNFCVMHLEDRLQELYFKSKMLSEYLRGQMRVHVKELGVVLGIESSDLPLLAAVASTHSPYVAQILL
The description is as above.

These are yes or no findings as the source states them, for the method shown. In cells and extracts the contact can be indirect. Some binding calls cover weakened binding; strength is not graded here. For part of these data: Sequences can lack the tags named with a protein.

“Aha1, endogenous (from UniProt O95433 1-338)”: the binding entry in test [1] and in test [2] was “binds” throughout.
On to “B-Raf, endogenous (from UniProt P15056 1-766)”, for which the binding entry in test [3] and in test [4] was “binds” throughout.
On to “CHIP, endogenous (from UniProt Q9UNE7 1-303)”, for which the binding result in test [1] and in test [2] was “binds” in each case.
As to “HOP, endogenous (from UniProt P31948 1-543)”, the binding result in test [1], in test [2], in test [3] and in test [4] was “binds” in each case.
For the substance “glucocorticoid receptor (GR), endogenous (from UniProt P04150 1-777)”, the binding result in test [3] and in test [4] was “binds” in each case.
